Laboratory results published in US20110301079A1, “NEUROMEDIN U RECEPTOR AGONISTS AND USES THEREOF” (Instituto di Ricerche di Biologia Molecolare P. Angeletti …, priority 2007, published 2011).
At least one compound was matched to its structure with a doubt left. Residues, ends and D or L forms follow the SMILES beside them. *: point of attachment. X1 = CC(C)CCC[C@@H](C)[C@H]1CC[C@H]2[C@@H]3CC=C4C[C@@H](OC(=O)C*)CC[C@]4(C)[C@H]3CC[C@]12C

The chains behind the UniProt entries cited, without tags or fusion partners. Where a name states a change or a piece, a line headed by the entry shows the natural chain unless it says otherwise. Residues count along the entry.
UniProt Q9GZQ4: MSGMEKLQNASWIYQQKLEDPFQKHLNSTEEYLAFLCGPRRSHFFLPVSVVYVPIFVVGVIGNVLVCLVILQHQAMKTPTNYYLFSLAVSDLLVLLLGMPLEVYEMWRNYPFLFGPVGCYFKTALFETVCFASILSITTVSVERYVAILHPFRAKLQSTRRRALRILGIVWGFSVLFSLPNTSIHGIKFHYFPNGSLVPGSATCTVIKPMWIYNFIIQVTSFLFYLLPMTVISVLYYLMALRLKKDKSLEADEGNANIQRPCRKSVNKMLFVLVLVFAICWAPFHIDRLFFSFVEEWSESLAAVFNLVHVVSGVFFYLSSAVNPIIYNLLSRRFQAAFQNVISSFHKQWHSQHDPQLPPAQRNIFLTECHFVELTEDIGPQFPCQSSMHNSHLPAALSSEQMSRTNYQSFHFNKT
UniProt Q8BZ39: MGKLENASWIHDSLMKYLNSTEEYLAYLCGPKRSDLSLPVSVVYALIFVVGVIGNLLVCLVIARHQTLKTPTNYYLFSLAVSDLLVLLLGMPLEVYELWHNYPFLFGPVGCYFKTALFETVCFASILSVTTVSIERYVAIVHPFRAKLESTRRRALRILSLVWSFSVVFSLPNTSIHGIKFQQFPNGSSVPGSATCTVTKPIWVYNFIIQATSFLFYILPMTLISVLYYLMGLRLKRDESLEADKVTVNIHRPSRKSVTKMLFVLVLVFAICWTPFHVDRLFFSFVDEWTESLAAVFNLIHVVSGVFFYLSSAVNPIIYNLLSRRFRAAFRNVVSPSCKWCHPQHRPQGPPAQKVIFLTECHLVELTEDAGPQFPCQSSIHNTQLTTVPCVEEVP
UniProt A0A8I3MN59, 1-378: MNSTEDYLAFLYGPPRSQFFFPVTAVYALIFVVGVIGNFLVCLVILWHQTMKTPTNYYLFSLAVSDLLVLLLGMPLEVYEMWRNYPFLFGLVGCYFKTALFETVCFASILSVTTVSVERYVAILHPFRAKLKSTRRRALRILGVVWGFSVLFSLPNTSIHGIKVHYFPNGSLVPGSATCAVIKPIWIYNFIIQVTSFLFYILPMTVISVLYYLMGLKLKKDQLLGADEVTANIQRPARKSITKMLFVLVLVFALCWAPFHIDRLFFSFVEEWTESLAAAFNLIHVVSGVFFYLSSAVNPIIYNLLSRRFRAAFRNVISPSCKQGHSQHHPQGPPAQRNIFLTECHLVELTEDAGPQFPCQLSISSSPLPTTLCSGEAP

Experiments:
Type in all cases: cell-based
human NMUR1 = target: T1, human NMUR1 (Homo sapiens, UniProt Q9HB89); assay: FLIPR calcium mobilization assay, human NMUR1-expressing cell line
T1 construct: expressed in transfected cells; host or cells: FLP-In CHO cells and HEK-293 FLP-In cells (pcDNA5)
T1 sequence (Q9HB89 1-426): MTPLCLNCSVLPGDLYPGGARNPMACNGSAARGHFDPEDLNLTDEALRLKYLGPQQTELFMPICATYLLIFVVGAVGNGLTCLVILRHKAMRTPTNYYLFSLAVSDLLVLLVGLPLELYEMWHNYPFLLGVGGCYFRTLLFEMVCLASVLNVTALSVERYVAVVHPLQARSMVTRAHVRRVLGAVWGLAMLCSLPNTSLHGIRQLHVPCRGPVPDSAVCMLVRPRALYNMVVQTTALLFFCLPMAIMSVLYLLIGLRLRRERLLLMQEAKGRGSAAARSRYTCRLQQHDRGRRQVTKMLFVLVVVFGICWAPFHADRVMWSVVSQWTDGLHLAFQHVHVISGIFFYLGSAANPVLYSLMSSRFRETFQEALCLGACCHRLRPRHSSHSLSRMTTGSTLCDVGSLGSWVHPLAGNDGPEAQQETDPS
Source text: (§1) Human, mouse or rat cDNAs encoding NMUR1 or NMUR2 (as described in Howard et al. Nature 406: 70-74 (2000) were subcloned in pcDNA5 (Invitrogen) and transfected into FLP-In CHO cells and HEK-293 FLP-In cells purchased from Invitrogen (Carlsbad, Calif.) using lipofectamine (Invitrogen). The Flp-In system allows integration and expression of a particular gene of interest at a specific genomic location utilizing the Flp recombinase from yeast. The transfected cells were selected by growth in medium containing 200 μg/mL hygromycin (Invitrogen). Populations were frozen at early passage numbers, and these stocks were used for further studies. Stable clones that expressed the mRNAs were identified functionally by FLIPR as well as by RT-PCR. […] Two different rodent NMUR1 cell lines were thus generated: one with the codon as predicted from the genomic databases and another cell line with an engineered methionine (ATG) as the start codon. […]
(§2) After a 90 minute incubation at room-temperature, cell plates are loaded onto a FLIPR (Molecular Devices) to monitor cellular fluorescence (excitation=488 nm; emission=540 nm) before and after compound/peptide addition. […] The response after peptide addition is taken as the maximum fluorescence units minus the fluorescence immediately prior to stimulation for each well. EC50 values are calculated using GraphPad Prism (San Diego, Calif.) software. […]

human NMUR2 = target: T2, human NMUR2 (Homo sapiens, UniProt Q9GZQ4); assay: FLIPR calcium mobilization assay, human NMUR2-expressing cell line
T2 construct: expressed in transfected cells; host or cells: FLP-In CHO cells and HEK-293 FLP-In cells (pcDNA5)
Source text: as §1, §2

mouse NMUR1-ATG = target: T3, mouse NMUR1-ATG (Mus musculus, UniProt O55040); assay: FLIPR calcium mobilization assay, mouse NMUR1-ATG cell line
T3 construct: expressed in transfected cells; host or cells: FLP-In CHO cells and HEK-293 FLP-In cells (pcDNA5)
T3 sequence (O55040 1-428): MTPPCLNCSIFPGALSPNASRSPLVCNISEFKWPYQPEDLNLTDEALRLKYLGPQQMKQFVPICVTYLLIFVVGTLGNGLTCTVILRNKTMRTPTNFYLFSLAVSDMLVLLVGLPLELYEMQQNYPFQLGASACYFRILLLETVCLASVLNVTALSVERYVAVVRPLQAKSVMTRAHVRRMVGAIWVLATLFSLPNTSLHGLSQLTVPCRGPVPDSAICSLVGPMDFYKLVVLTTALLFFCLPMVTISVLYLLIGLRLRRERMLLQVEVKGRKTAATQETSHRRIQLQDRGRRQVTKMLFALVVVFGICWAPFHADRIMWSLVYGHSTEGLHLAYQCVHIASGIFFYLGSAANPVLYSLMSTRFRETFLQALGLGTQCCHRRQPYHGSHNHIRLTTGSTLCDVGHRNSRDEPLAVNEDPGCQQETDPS
Source text: as §1, §2

mouse NMUR2 = target: T4, mouse NMUR2 (Mus musculus, UniProt Q8BZ39); assay: FLIPR calcium mobilization assay, mouse NMUR2 cell line
T4 construct: expressed in transfected cells; host or cells: FLP-In CHO cells and HEK-293 FLP-In cells (pcDNA5)
Source text: as §1, §2

dog NMUR2 = target: T5, dog NMUR2 (Canis lupus familiaris, UniProt A0A8I3MN59); assay: FLIPR calcium mobilization assay, dog NMUR2 cell line
T5 construct: expressed in transfected cells
Source text: as §1, §2

`CC[C@H](C)[C@H](NC(=O)[C@H](CSCC(=O)O[C@H]1CC[C@@]2(C)C(=CC[C@H]3[C@@H]4CC[C@H]([C@H](C)CCCC(C)C)[C@@]4(C)CC[C@@H]32)C1)NC(C)=O)C(=O)N[C@@H](CC(C)C)C(=O)N[C@@H](CCC(N)=O)C(=O)N[C@@H](CCCNC(=N)N)C(=O)NCC(=O)N[C@@H](CO)C(=O)NCC(=O)N[C@H](C(=O)N[C@@H](C)C(=O)N[C@@H](C)C(=O)N[C@H](C(=O)N[C@@H](CC(=O)O)C(=O)N[C@@H](Cc1ccccc1)C(=O)N[C@H](C(=O)N[C@@H](CCCCN)C(=O)N[C@@H](CCCCN)C(=O)N[C@@H](CC(=O)O)C(=O)N[C@@H](Cc1c[nH]cn1)C(=O)N[C@H](C(=O)N[C@@H](C)C(=O)N[C@H](C(=O)N[C@@H](Cc1c[nH]c2ccccc12)C(=O)NCC(=O)N[C@@H](CCCNC(=N)N)C(=O)N1CCC[C@H]1C(=O)N[C@@H](Cc1ccccc1)C(=O)N[C@@H](Cc1ccccc1)C(=O)N[C@@H](CC(C)C)C(=O)N[C@@H](Cc1ccccc1)C(=O)N[C@@H](CCCNC(=N)N)C(=O)N1CCC[C@H]1C(=O)N[C@@H](CCCNC(=N)N)C(=O)N[C@@H](CC(N)=O)C(N)=O)[C@@H](C)O)[C@@H](C)O)[C@@H](C)O)C(C)C)[C@@H](C)O` [NMS2] (Ac-C(X1)ILQRGSGTAAVDFTKKDHTATWGRPFFLFRPRN-NH2) showed an EC50 (human NMUR1) of at least 1000 nM, an EC50 (human NMUR2) of at least 1000 nM and an EC50 (mouse NMUR1-ATG) of at least 1000 nM. It also gave an EC50 (mouse NMUR2) of at least 1000 nM and an EC50 (dog NMUR2) of 37.5 nM.
